Measured values published in PubChem BioAssay AID330 (DTP/NCI, 2004).
The list shows only some results of the screen, not a fair sample: it is rich in T/C values a quarter to a half above the control, in often repeated tests (any T/C) and in doses without a T/C. Further doses and runs are listed elsewhere. T/C gives the treated animals as a percentage of the vehicle group. Some doses have a count of surviving animals in place of a T/C: the source files T/C as zero there, which appears to mark a toxic dose or a test without result, not a measured value. Some survivor counts are full or nearly so, which does not show that the dose was tolerated: survival well below the control is almost never listed, so the zero probably covers shortened survival too. Counts of survivors are from the toxicity check (mostly the fifth day) where no day follows; animals may have died later. Schedule codes are those of the source, taken here to give the interval after Q, in days (D) or hours (H), and the number of doses after X.

Test system: P388 leukemia ip, CD2F1 mice, survival T/C
Experiment: NCI In Vivo Anticancer Drug Screen. Data for tumor model P388 Leukemia (intraperitoneal) in CD2F1 (CDF1) mice
Conditions: T/C endpoint: median survival time, higher T/C = longer survival

CCN(CC)c1ccc2c(C)cc(=O)oc2c1 was tested, and the survivor count (dose: 100.0 mg/kg/injection, schedule: Q04DX003 (ip), vehicle: DMSO) was 5 of 6 and the survivor count (dose: 200.0 mg/kg/injection, schedule: Q04DX003 (ip), vehicle: DMSO) was 0 of 6.
In the case of O=c1[nH]ccc2sccc12, the survivor count (dose: 200.0 mg/kg/injection, schedule: Q01DX009 (ip), vehicle: saline with Tween-80) is reported as 3 of 6.
For O=C(C(=O)C(Br)Br)C(Br)Br, the survivor count (dose: 50.0 mg/kg/injection, schedule: Q01DX009 (ip), vehicle: DMSO) was 0 of 6, the survivor count (dose: 100.0 mg/kg/injection, schedule: Q01DX009 (ip), vehicle: DMSO) was 0 of 6 and the survivor count (dose: 200.0 mg/kg/injection, schedule: Q01DX009 (ip), vehicle: DMSO) was 0 of 6.
With Cn1c(C(C)(C)O)cnc1[N+](=O)[O-] the survivor count (dose: 100.0 mg/kg/injection, schedule: Q01DX009 (ip), vehicle: saline with Tween-80) was 6 of 6.
For O=C1C=CC(=O)N1C1CCCCC1, the survivor count (dose: 50.0 mg/kg/injection, schedule: Q01DX009 (ip), vehicle: Klucel (hydroxypropylcellulose) (HPC)) was 0 of 6.
In the case of N#Cc1ccc[n+](CC(=O)c2ccc3ccccc3c2)c1, the survivor count (dose: 50.0 mg/kg/injection, schedule: Q01DX005 (ip), vehicle: Klucel (hydroxypropylcellulose) (HPC)) is reported as 2 of 5, the survivor count (dose: 100.0 mg/kg/injection, schedule: Q01DX005 (ip), vehicle: Klucel (hydroxypropylcellulose) (HPC)) is reported as 0 of 5 and the survivor count (dose: 200.0 mg/kg/injection, schedule: Q01DX005 (ip), vehicle: Klucel (hydroxypropylcellulose) (HPC)) is reported as 4 of 5.
With O=C(O)c1c(Cl)c(Cl)c(Cl)c(Cl)c1C(=O)Nc1ccc2cn[nH]c2c1 the survivor count (dose: 200.0 mg/kg/injection, schedule: Q01DX009 (ip), vehicle: saline + alcohol) was 5 of 6.
FC(F)(F)SN1CN(SC(F)(F)F)CN(SC(F)(F)F)CN(SC(F)(F)F)C1 was tested, and the survivor count (dose: 120.0 mg/kg/injection, schedule: Q01DX005 (ip), vehicle: saline) was 5 of 6.
O=[N+]([O-])c1cc(I)c(O)c(/C=N/NS(=O)(=O)c2ccc(Cl)cc2)c1 was tested, and the survivor count (dose: 200.0 mg/kg/injection, schedule: Q01DX005 (ip), vehicle: saline with Tween-80) was 0 of 6.
